Assay results taken from paper PMC11242853, “The Antimicrobial Activity of Human Defensins at Physiological Non-Permeabilizing Concentrations Is Caused by the Inhibition of the Plasma Membrane H^+-ATPases” (International Journal of Molecular Sciences, 2024).

Tests used:
[1] = set-up: method as in 19 sources, ref 24; PMID 3290255; doi:10.1172/JCI113527; 24. Lehrer R.I. Ganz T. Szklarek D. Selsted M.E. Modulation of the in vitro candidacidal activity of human neutrophil defensins by target cell metabolism and divalent cations J. Clin. Invest. 1988 81 || [47]; PMID 11083633; doi:10.1128/AAC.44.12.3310-3316.2000; 47. Edgerton M. Koshlukova S.E. Araujo M.W. Patel R.C. Dong J. Bruenn J.A. Salivary histatin 5 and human neutrophil defensin 1 kill Candida albicans via shared pathways Antimicrob. Agents Chemother. 2 ||| ref 20 = [20]; PMID 17074797; doi:10.1128/AAC.00478-06; 20. Vylkova S. Nayyar N. Li W. Edgerton M. Human beta-defensins kill Candida albicans in an energy-dependent and salt-sensitive manner without causing membrane disruption Antimicrob. Agents Chemother. ||| ref 24, 62 (HNP-1); 62, 63 (HNP-4); 20 (hBD-2); 12, 20 (hBD-3); 34, 35, 64 cidal and 65, 66 static (lactoferrin) ||| ref 26 (HNP-1); 12 (HNP-4); 11 (hBD-2, hBD-3); 43, 67 (lactoferrin) ||| ref 14 (HNP-1); 23 (HNP-4); Yes 11, 13 / No 20 (hBD-2); No 20 / Yes 11 (hBD-3); 31, 34, 42 (lactoferrin) ||| ...; conditions: Table 2; ref 14 (HNP-1); 23 (HNP-4); 20, 11, 13 (hBD-2); 20, 11 (hBD-3); 36, 44, 31, 42 (lactoferrin); cited from earlier work
[2] = Table 2 comparison of events associated with cell death pathways (literature and conclusions); conditions: conclusion of this study, no reference given

HNP-1: human α-defensin, UniProtKB P59665, 30 amino acids, three disulfide bonds; purchased from PeptaNova
Cell death type (yeast) [1]: ND Permeabilization [14] | Cellular target [2]: PM H^+-ATPase

hBD-3: human β-defensin, UniProtKB Q5U7J2, 45 amino acids; purchased from PeptaNova (GIINTLQKYYCRVRGGRCAVLSCLPKEEQIGKCSTRGRKCCRRKK; Beta-defensin 103; UniProt P81534 23-67, looked up)
Cell death type (yeast) [1]: ND Permeabilization (No [20]/Yes [11, 20]) | Cellular target [2]: PM H^+-ATPase

HNP-4: human α-defensin, UniProtKB P12838, 33 amino acids; purchased from PeptaNova (VCSCRLVFCRRTELRVGNCLIGGVSFTYCCTRV; Neutrophil defensin 4; UniProt P12838 64-96, looked up)
Cell death type (yeast) [1]: ND Permeabilization [23] | Cellular target [2]: PM H^+-ATPase
